# Assay results taken from article PMC10393194.
# Results are given in words; binding and its absence hold for the method and conditions named. In cells and extracts the contact can be indirect. Some binding calls cover weakened binding; strength is not graded here.
# T1: Cbp80 (S. cerevisiae (endogenous in yeast)) (UniProt P34160)
# T1 sequence: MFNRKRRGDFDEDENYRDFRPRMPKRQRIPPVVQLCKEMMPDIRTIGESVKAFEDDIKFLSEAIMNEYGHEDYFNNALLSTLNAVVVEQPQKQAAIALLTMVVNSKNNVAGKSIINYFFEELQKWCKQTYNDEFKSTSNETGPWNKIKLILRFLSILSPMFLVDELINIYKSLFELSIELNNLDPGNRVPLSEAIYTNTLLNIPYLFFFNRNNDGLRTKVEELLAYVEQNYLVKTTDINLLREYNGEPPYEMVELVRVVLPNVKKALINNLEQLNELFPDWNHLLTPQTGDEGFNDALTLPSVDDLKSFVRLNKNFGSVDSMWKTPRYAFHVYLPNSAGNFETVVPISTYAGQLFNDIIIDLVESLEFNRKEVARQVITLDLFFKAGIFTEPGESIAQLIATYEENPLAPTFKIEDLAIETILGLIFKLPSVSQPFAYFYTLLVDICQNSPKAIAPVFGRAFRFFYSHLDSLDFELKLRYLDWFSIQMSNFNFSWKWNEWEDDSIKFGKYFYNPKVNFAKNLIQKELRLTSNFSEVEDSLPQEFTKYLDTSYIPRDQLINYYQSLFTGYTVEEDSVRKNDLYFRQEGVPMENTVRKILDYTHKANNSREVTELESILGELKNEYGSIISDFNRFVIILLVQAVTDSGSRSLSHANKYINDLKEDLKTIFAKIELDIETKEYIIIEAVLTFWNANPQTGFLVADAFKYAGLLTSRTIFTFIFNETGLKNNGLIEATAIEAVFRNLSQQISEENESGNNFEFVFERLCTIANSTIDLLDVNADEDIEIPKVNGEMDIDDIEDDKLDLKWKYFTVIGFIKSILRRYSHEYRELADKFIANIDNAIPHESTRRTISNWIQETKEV
# T2: Nab2 (S. cerevisiae (endogenous in yeast)), P32505
# T2 chain: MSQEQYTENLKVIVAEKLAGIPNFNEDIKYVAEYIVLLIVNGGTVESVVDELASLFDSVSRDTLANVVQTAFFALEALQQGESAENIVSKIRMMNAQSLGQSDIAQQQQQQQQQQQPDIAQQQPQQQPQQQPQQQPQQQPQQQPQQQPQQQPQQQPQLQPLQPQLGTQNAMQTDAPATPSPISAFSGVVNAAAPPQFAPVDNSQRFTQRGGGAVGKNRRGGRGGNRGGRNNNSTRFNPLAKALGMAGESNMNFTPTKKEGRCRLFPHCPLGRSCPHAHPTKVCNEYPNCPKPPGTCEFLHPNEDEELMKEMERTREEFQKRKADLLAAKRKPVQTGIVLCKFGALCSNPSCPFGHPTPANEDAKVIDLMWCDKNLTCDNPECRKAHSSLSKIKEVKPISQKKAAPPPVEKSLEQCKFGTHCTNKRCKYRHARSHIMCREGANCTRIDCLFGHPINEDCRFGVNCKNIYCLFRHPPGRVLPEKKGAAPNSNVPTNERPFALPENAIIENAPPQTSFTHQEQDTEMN
# How the values were obtained:
# [1] = biological target: T1, Cbp80 (S. cerevisiae (endogenous in yeast)); test: cross-linking; BS^3 cross-linking mass spectrometry (XL-MS) of the diluted native mRNP preparation; LysC and trypsin digestion, 1% FDR
# [2] = biological target: T2, Nab2 (S. cerevisiae (endogenous in …)); test: as above; settings: remark: other sources report otherwise
binding [1],binding [2],Binder
binds,–,"Cbp20 (protein, UniProt Q08920 1-208) MSLEEFDEVKYDHSTKRLDTPSRYLLRKARRNPNGLQELRESMKSSTIYVGNLSFYTSEEQIYELFSKCGTIKRIIMGLDRFKFTPCGFCFIIYSCPDEALNALKYLSDTKLDEKTITIDLDPGFEDGRQFGRGKSGGQVSDELRFDFDASRGGFAIPFAERVGVPHSRFDNSSSQSNTNNYIPPPDAMGTFRPGFDEEREDDNYVPQ"
–,binds,"Nab2, P32505 1-525 (protein) MSQEQYTENLKVIVAEKLAGIPNFNEDIKYVAEYIVLLIVNGGTVESVVDELASLFDSVSRDTLANVVQTAFFALEALQQGESAENIVSKIRMMNAQSLGQSDIAQQQQQQQQQQQPDIAQQQPQQQPQQQPQQQPQQQPQQQPQQQPQQQPQQQPQLQPLQPQLGTQNAMQTDAPATPSPISAFSGVVNAAAPPQFAPVDNSQRFTQRGGGAVGKNRRGGRGGNRGGRNNNSTRFNPLAKALGMAGESNMNFTPTKKEGRCRLFPHCPLGRSCPHAHPTKVCNEYPNCPKPPGTCEFLHPNEDEELMKEMERTREEFQKRKADLLAAKRKPVQTGIVLCKFGALCSNPSCPFGHPTPANEDAKVIDLMWCDKNLTCDNPECRKAHSSLSKIKEVKPISQKKAAPPPVEKSLEQCKFGTHCTNKRCKYRHARSHIMCREGANCTRIDCLFGHPINEDCRFGVNCKNIYCLFRHPPGRVLPEKKGAAPNSNVPTNERPFALPENAIIENAPPQTSFTHQEQDTEMN"
